PubChem BioAssay AID652259, Drosophila RNAi Screening Center, 2013
The deposit covers about 22,000 reagents; below is a random part of those with a known target gene and a result. In the full data, 233 (1.1%) are marked active. 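Light values are raw, unnormalised plate reads; the ratio scores behind the reporter calls were not deposited.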 Entries without a mark were called inactive. A plus sign joins genes that one reagent is predicted to hit. The record does not give: the amount of reagent, the time to read-out, the dose of the treatment.

Purpose: 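Genome-wide hunt for genes that control Wingless pathway activity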 (primary screen)
Cell system: Drosophila clone 8 imaginal disc epithelial cells
Reagent: long dsRNA against Drosophila genes
Challenge: pathway stimulated by co-transfected Wingless expression plasmid
Measured: 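Dual luciferase reads per well after Wingless plasmid stimulation: reporter firefly light and Renilla control light; activity is firefly divided by Renilla, a ratio not deposited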
Reading the numbers: firefly reporter light: higher = more Wg reporter light, before normalisation; Renilla control light: higher = more transfected or surviving cells
Rule for the call: 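a knock-down is a candidate when at least two out of four statistical tests show it departing from its plate mean; one test alone signals a weak candidate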
Meaning of the calls: active = candidate regulator (raises or lowers reporter); inactive = not a candidate

gene knocked down | dsRNA | reporter change call, replicate 1 | firefly reporter light, replicate 1 | firefly reporter light, replicate 2 | Renilla control light, replicate 1 | Renilla control light, replicate 2
CG8152 | DRSC07083 | – | 5509 | – | 2315 | –
dUTPase | DRSC01998 | – | 20928 | – | 5141 | –
CG10587 | DRSC11627 | – | 10486 | – | 5051 | –
PH4alphaPV | DRSC22400 | – | 1.08e6 | 1.06e6 | 5.56e5 | 2.09e5
RhoGAP1A | DRSC20649 | – | 18298 | – | 10585 | –
RhoGAP1A | DRSC20651 | – | 15948 | – | 9465 | –
S-Lap5 | DRSC06732 | – | 5243 | – | 2152 | –
hdly | DRSC15849 | – | 15415 | – | 3490 | –
Ptp10D | DRSC20272 | – | 14650 | – | 7810 | –
Rh5 | DRSC03412 | – | 4641 | – | 1160 | –
CG4477 | DRSC10425 | – | 8036 | – | 4189 | –
ac | DRSC18734 | – | 11280 | – | 7479 | –
CG7222 | DRSC07019 | – | 15464 | – | 4324 | –
CG14712 | DRSC14935 | – | 3904 | – | 1196 | –
Ssrp | DRSC04658 | Wg reporter activity raised | 17059 | – | 3236 | –
DIP2 | DRSC08582 | – | 13418 | – | 4314 | –
CG31122 | DRSC14787 | – | 3619 | 12342 | 1203 | 2965
CG31122 | DRSC16286 | – | 17161 | – | 3067 | –
eIF4E1 | DRSC11342 | – | 3159 | – | 1047 | –
Mur11Da | DRSC18960 | – | 4354 | – | 1355 | –
mEFTs | DRSC02953 | – | 9735 | – | 3259 | –
CG3529 | DRSC10369 | – | 4368 | – | 1666 | –
CG12541 | DRSC17483 | – | 5018 | – | 870 | –
CG12541 | DRSC17839 | – | 22119 | – | 9162 | –
CG34012 | DRSC09089 | – | 2660 | – | 2013 | –
lncRNA:CR43421 | DRSC05819 | – | 24695 | – | 17241 | –
ND-49L | DRSC14437 | – | 10237 | – | 8696 | –
Andorra | DRSC19475 | – | 24291 | – | 10288 | –
CG7691 | DRSC16287 | – | 11792 | – | 3209 | –
loaf | DRSC09130 | – | 1405 | – | 683 | –
inaF-A | DRSC19660 | – | 11072 | – | 7720 | –
CG7639 | DRSC07026 | – | 5317 | – | 1968 | –
CG18258 | DRSC19798 | – | 22240 | – | 10342 | –
CG13667 | DRSC10028 | – | 3504 | – | 1716 | –
CG5504 | DRSC04701 | – | 10288 | – | 2840 | –
CG5194 | DRSC10492 | – | 7098 | – | 2640 | –
fusl | DRSC02351 | – | 5856 | – | 2886 | –
CG42712 (retired record) | DRSC01038 | – | 17133 | – | 6388 | –
eIF4H2 | DRSC14582 | – | 3444 | 6823 | 1280 | 2381
moi + Tgs1 | DRSC16371 | – | 13258 | – | 2273 | –
CG15423 | DRSC00437 | – | 4858 | 8105 | 1549 | 3000
CG4829 | DRSC19920 | – | 2320 | 5492 | 897 | 2123
CG33144 | DRSC06132 | – | 10395 | – | 2421 | –
CG33144 | DRSC07024 | – | 4262 | 8624 | 1105 | 4547
Socs16D | DRSC20087 | – | 16376 | – | 7488 | –
Cpr65Ax2 + Cpr65Ax1 | DRSC10341 | – | 3865 | 11073 | 1452 | 4171
Cpr65Ax2 + Cpr65Ax1 | DRSC10344 | – | 1447 | 9334 | 1169 | 4029
ara | DRSC11322 | – | 5017 | – | 1001 | –
CG15169 | DRSC02470 | – | 2966 | 5175 | 504 | 2277
Ipk2 | DRSC00357 | – | 3072 | 7413 | 1266 | 3261
amd | DRSC02608 | – | 3565 | 11207 | 1083 | 4421
amd | DRSC03483 | – | 2983 | 6405 | 781 | 2179
Polr2E | DRSC06100 | – | 5084 | 10935 | 651 | 1845
PGAP2 | DRSC00632 | – | 4296 | – | 2474 | –
CG42788 | DRSC15330 | – | 16439 | – | 4002 | –
CG42788 | DRSC16139 | – | 17172 | – | 3921 | –
CG42788 | DRSC16152 | – | 11538 | – | 3430 | –
deltaCOP | DRSC18760 | – | 1570 | 5448 | 746 | 1947
kat80 | DRSC20344 | – | 22579 | – | 10838 | –
kat80 | DRSC20345 | – | 18163 | – | 7341 | –
LysX | DRSC08678 | – | 5484 | – | 2482 | –
UQCR-C1 | DRSC15508 | – | 7288 | – | 2566 | –
CG31759 | DRSC01230 | – | 13303 | – | 6754 | –
CG3061 | DRSC15460 | – | 14272 | – | 1954 | –
CG4022 | DRSC10395 | – | 3029 | – | 1789 | –
Ama | DRSC12489 | – | 2999 | – | 1432 | –
inaF-B + inaF-D + inaF-C + 1 more | DRSC20342 | – | 20345 | – | 10400 | –
CG12107 | DRSC06102 | – | 11301 | – | 2160 | –
eater | DRSC15969 | – | 11068 | – | 4144 | –
eater | DRSC22254 | – | 4.54e5 | 4.29e5 | 1.78e5 | 1.83e5
CG6931 | DRSC10750 | – | 8039 | – | 3446 | –
scra | DRSC07679 | – | 9324 | – | 1116 | –
CG13933 | DRSC08402 | – | 14333 | – | 3941 | –
capt | DRSC00676 | – | 1722 | 7110 | 693 | 2160
capt | DRSC00806 | – | 1526 | 7495 | 725 | 2407
aay | DRSC11320 | – | 4995 | – | 2570 | –
Cyp49a1 | DRSC06737 | – | 4500 | 11272 | 841 | 3021
Cyp49a1 | DRSC07367 | – | 3144 | 7712 | 845 | 2425
CG7789 | DRSC16312 | – | 4842 | 9348 | 1591 | 2593
Lgr4 | DRSC18969 | – | 5303 | – | 1392 | –
Lgr4 | DRSC18970 | – | 2870 | – | 354 | –
Lgr4 | DRSC19884 | – | 20181 | – | 10077 | –
CG15642 | DRSC19678 | – | 17257 | – | 8141 | –
CG42376 + cin | DRSC18752 | – | 2477 | 6485 | 845 | 1767
CG6013 | DRSC15947 | – | 4099 | 5189 | 1024 | 2492
CG33342 | DRSC13662 | – | 2512 | – | 1307 | –
Pp2C1 | DRSC18699 | – | 2833 | 12411 | 556 | 995
Fbxo42 | DRSC04529 | – | 11037 | – | 2587 | –
CG4592 | DRSC02761 | – | 11861 | – | 4397 | –
CG17027 | DRSC10238 | – | 8080 | – | 3232 | –
Ac76E | DRSC09642 | – | 1778 | – | 1066 | –
Ac76E | DRSC09662 | – | 8354 | – | 3476 | –
lky | DRSC20682 | – | 17968 | – | 8577 | –
